The values below come from PMC3903613.

By UniProt entry, the sequences of proteins in these tests, tags left out.
UniProt P41164: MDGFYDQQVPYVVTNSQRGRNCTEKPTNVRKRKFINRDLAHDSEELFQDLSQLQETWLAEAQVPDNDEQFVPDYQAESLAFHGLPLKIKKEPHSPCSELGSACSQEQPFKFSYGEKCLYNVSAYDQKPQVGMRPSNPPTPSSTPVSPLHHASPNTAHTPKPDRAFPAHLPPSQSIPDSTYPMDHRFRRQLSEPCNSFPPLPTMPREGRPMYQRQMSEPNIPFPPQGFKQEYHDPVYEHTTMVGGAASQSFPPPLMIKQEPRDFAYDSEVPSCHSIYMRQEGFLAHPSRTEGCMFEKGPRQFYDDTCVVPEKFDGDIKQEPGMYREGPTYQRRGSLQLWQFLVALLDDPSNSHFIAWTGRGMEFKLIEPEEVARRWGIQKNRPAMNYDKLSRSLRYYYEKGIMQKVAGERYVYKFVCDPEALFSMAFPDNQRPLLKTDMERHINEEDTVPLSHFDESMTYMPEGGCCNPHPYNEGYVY

Results are given in words; binding and its absence hold for the method and conditions named. Binding seen in cells or lysates may run through a third protein. Some results given as binding are weak or reduced against the parent protein; the word gives no strength.

The assay has as its target Endogenous mouse ETV1 (mouse (endogenous in AB-1 embryonic stem cells)) (UniProt P41164). In words: co-IP; endogenous Pkp3 or ETV1 immuno-precipitated from nuclear extracts of AB-1 mouse embryonic stem cells; 200 mM NaCl, washes with 0.5% Triton X-100, 0.5% sodium deoxycholate, 0.1% SDS; blot for Pkp3 and ETV1.

B1: Endogenous mouse Pkp3 (protein, UniProt Q9QY23 1-797)
chain: MQEGNFLLSALQPETGVCSLALPSDLQLDRRGAEGPEADRLRAARVQEQVRARLLQLGQQSRHNGSAELDGSAESARGMPRGQYHTMQTGFSSRSQGMSGDKTSTFRPIAKPAYSPASWSSRSAVDLTCSRRLSSAHNGGSAFGAVGYGGTQPTPPMPTRPVSFHERGGAASRADYDTLSLRSLRLGPGGLDDRYSVVSEQLEPAAASTYRAYAYERQASSGSSRAGGLDWPEATEGPPSRTIRAPAMRTLQRFQSSHRSRGGTGSVSGAGLEPVARAPSVRSLSLSLADSGHLPDVRGLDSYTGHRTLQRLSSGFDDIDLPSAVKYLMASDPNLQVLGAAYIQHRCYSDAAAKKQARSLQAVPRLVKLFNHANQEVQRHATGAMRNLIYDNVDNKLALVEENGIFELLRTLREQDDELRKNVTGILWNLSSSDHLKDRLARDTLEQLTDLVLSPLSGAGGPPLIQQNASEAEIFYNATGFLRNLSSASQATRQKMRECHGLVDALVTYINHALDVGKCEDKSVENAVCVLRNLSYRLYDEMPPSALQRLEGRGRRDMAGAPPGEMVGCFTPQSRRLRELPLTADALTFAEVSKDPKGLEWLWSPQIVGLYNRLLQRCELNRHTTEAAAGALQNITAGDRRWAGVLSRLALEQERILNPLLDRVRTADHNQLRSLTGLIRNLSRNARNKDEMSTKVVSHLIEKLPGSVGEKCPPAEVLVNIIAVLNNLVVASPIAARDLLYFDGLRKLVFIKKKRDSPDSEKSSRAASSLLANLWQYSKLHRDFRAKGYRKEDFLGP
Turning to B1, the binding entry is “binds”.
